Data reported in the supplement of paper PMC7125110.
± gives the standard error. The uncertainty is large for many entries.

B1: glmS ribozyme (parent)
chain: AUAAAAGCGCCAGAACUACAGAAAUGUAGUUGACGAGGAGGAGGUUUAUCGAAUUUUCGGCGGAUGCCUCCAAA

Variants of: B1
Experiment: kcat; higher = faster cleavage; RNA array
Settings: with glucosamine-6-phosphate
How it was run: (§1)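 kobs was derived by fitting per-tile medians to one- or two-exponential decays after normalising signals to baseline and to non-cleaving reference variants. Those signals came from barcoded ribozyme variants transcribed in situ by E. coli RNA polymerase on sequenced MiSeq chips, followed through a hybridised Cy3 probe at 37 °C and imaged over ~14 h. Glucosamine-6-phosphate (40 μM to 10 mM) in HEPES/KCl/Mg(OAc)2 buffer was flowed in. Weighted Michaelis–Menten fits across concentrations then gave kcat and KM.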

Row | Variant | kcat [s⁻¹]
1 | AUAAAAGCGCCAGAACUACAGAAAUGUAGUUGACGAGGAAGAGGUUUAUCGAAUUUUCGGCGGAUGCCUCAAAA [G40A C71A] | 0.0232 ± 0.019
2 | AUAAAAGCGCCAGAACUACAGAAAUGUAGUUGACGAGGAAGAGGUUUAUCGAAUUUUCGGCGGAUGCCUCGAAA [G40A C71G] | 0.00741 ± 0.0039
3 | AUAAAAGCGCCAGAACUACAGAAAUGUAGUUGACGAGGAAGAGGUUUAUCGAACUUUCGGCGGAUGCCUCCAAA [G40A U54C] | 0.00522 ± 0.00053
4 | AUAAAAGCGCCAGAACUACAGAAAUGUAGUUGACGAGGACGAGGUUUAUCGAAUUUUCGGCGGAUGCUUCCAAA [G40C C68U] | 2.62e-05 ± 1.4e-05
5 | AUAAAAGCGCCAGAACUACAGAAAUGUAGUUGACGAGGACGAGGUUUAUCGAAGUUUCGGCGGAUGCCUCCAAA [G40C U54G] | 0.00305 ± 0.0016
6 | AUAAAAGCGCCAGAACUACAGAAAUGUAGUUGACGAGGAUGAGGUUUAUCGAAUUUUAGGCGGAUGCCUCCAAA [G40U C58A] | 0.000609 ± 4.4e-05
7 | AUAAAAGCGCCAGAACUACAGAAAUGUAGUUGACGAGGAUGAGGUUUAUCGAAUUUUCGGCGGAUGCCUCAAAA [G40U C71A] | 0.0152 ± 0.0083
8 | AUAAAAGCGCCAGAACUACAGAAAUGUAGUUGACGAGGAUGAGGUUCAUCGAAUUUUCGGCGGAUGCCUCCAAA [G40U U47C] | 0.00133 ± 0.00022
9 | AUAAAAGCGCCAGAACUACAGAAAUGUAGUUGACGAGGAUGAGGUUUAUCGAAGUUUCGGCGGAUGCCUCCAAA [G40U U54G] | 0.00445 ± 0.0029
10 | AUAAAAGCGCCAGAACUACAGAAAUGUAGUUGACGAGGAUGAGGUUUAUCGAAUUAUCGGCGGAUGCCUCCAAA [G40U U56A] | 0.00558 ± 0.0041
11 | AUAAAAGCGCCAGAACUACAGAAAUGUAGUUGACGAGGAGACGGUUUAUCGAAUUUUCGGCGGAUGCCUCCAAA [G41A A42C] | 4.51e-05 ± 1.7e-05
12 | AUAAAAGCGCCAGAACUACAGAAAUGUAGUUGACGAGGAGUAGGUUAAUCGAAUUUUCGGCGGAUGCCUCCAAA [G41U U47A] | 0.000627 ± 0.00021
13 | AUAAAAGCGCCAGAACUACAGAAAUGUAGUUGACGAGGAGGCGGUUUAUCGAUUUUUCGGCGGAUGCCUCCAAA [A42C A53U] | 9.64e-05 ± 5.9e-05
14 | AUAAAAGCGCCAGAACUACAGAAAUGUAGUUGACGAGGAGGCGGUUUAUCGAAUUUUCGGCGGAUGCCUUCAAA [A42C C70U] | 1.24e-05 ± 3.3e-06
15 | AUAAAAGCGCCAGAACUACAGAAAUGUAGUUGACGAGGAGGGGGUUUAUAGAAUUUUCGGCGGAUGCCUCCAAA [A42G C50A] | 4.52e-05 ± 2.6e-06
16 | AUAAAAGCGCCAGAACUACAGAAAUGUAGUUGACGAGGAGGGGGUUUAUCGAAUUUUCGGCGGAUACCUCCAAA [A42G G66A] | 0.0281 ± 0.018
17 | AUAAAAGCGCCAGAACUACAGAAAUGUAGUUGACGAGGAGGUGGUUUAUCGGAUUUUCGGCGGAUGCCUCCAAA [A42U A52G] | 1.76e-05 ± 2.4e-06
18 | AUAAAAGCGCCAGAACUACAGAAAUGUAGUUGACGAGGAGGUUGUUUAUGGAAUUUUCGGCGGAUGCCUCCAAA [A42U G43U C50G] | 4.35e-05 ± 2.7e-05
19 | AUAAAAGCGCCAGAACUACAGAAAUGUAGUUGACGAGGAGGUGGUUUAUCGAAUUUUCGGCGGAUGCCACCAAA [A42U U69A] | 0.0199 ± 0.015

Variants of: B1
Experiment: KM; higher = weaker cofactor use; RNA array
Settings: with glucosamine-6-phosphate
How it was run: as §1

Row | Variant | KM [mM]
20 | AUAAAAGCGCCAGAACUACAGAAAUGUAGUUGACGAGGAAGAGGUUUAUCGAAUUUUCGGCGGAUGCCUCAAAA [G40A C71A] | 4.47 ± 4.2
21 | AUAAAAGCGCCAGAACUACAGAAAUGUAGUUGACGAGGAAGAGGUUUAUCGAAUUUUCGGCGGAUGCCUCGAAA [G40A C71G] | 1.85 ± 1.4
22 | AUAAAAGCGCCAGAACUACAGAAAUGUAGUUGACGAGGAAGAGGUUUAUCGAACUUUCGGCGGAUGCCUCCAAA [G40A U54C] | 0.908 ± 0.14
23 | AUAAAAGCGCCAGAACUACAGAAAUGUAGUUGACGAGGACGAGGUUUAUCGAAGUUUCGGCGGAUGCCUCCAAA [G40C U54G] | 1.97 ± 1.5
24 | AUAAAAGCGCCAGAACUACAGAAAUGUAGUUGACGAGGAUGAGGUUUAUCGAAUUUUAGGCGGAUGCCUCCAAA [G40U C58A] | 150 ± 11
25 | AUAAAAGCGCCAGAACUACAGAAAUGUAGUUGACGAGGAUGAGGUUUAUCGAAUUUUCGGCGGAUGCCUCAAAA [G40U C71A] | 0.971 ± 0.68
26 | AUAAAAGCGCCAGAACUACAGAAAUGUAGUUGACGAGGAUGAGGUUCAUCGAAUUUUCGGCGGAUGCCUCCAAA [G40U U47C] | 2.01 ± 0.55
27 | AUAAAAGCGCCAGAACUACAGAAAUGUAGUUGACGAGGAUGAGGUUUAUCGAAGUUUCGGCGGAUGCCUCCAAA [G40U U54G] | 2.69 ± 2.5
28 | AUAAAAGCGCCAGAACUACAGAAAUGUAGUUGACGAGGAUGAGGUUUAUCGAAUUAUCGGCGGAUGCCUCCAAA [G40U U56A] | 8.06 ± 7
29 | AUAAAAGCGCCAGAACUACAGAAAUGUAGUUGACGAGGAGUAGGUUAAUCGAAUUUUCGGCGGAUGCCUCCAAA [G41U U47A] | 0.517 ± 0.33
30 | AUAAAAGCGCCAGAACUACAGAAAUGUAGUUGACGAGGAGGCGGUUUAUCGAUUUUUCGGCGGAUGCCUCCAAA [A42C A53U] | 84.7 ± 58
31 | AUAAAAGCGCCAGAACUACAGAAAUGUAGUUGACGAGGAGGCGGUUUAUCGAAUUUUCGGCGGAUGCCUUCAAA [A42C C70U] | 7.63 ± 4.4
32 | AUAAAAGCGCCAGAACUACAGAAAUGUAGUUGACGAGGAGGGGGUUUAUAGAAUUUUCGGCGGAUGCCUCCAAA [A42G C50A] | 7.07 ± 0.92
33 | AUAAAAGCGCCAGAACUACAGAAAUGUAGUUGACGAGGAGGGGGUUUAUCGAAUUUUCGGCGGAUACCUCCAAA [A42G G66A] | 3.36 ± 2.6

Retrieved one by one from the list above:
Row | Variant | KM [mM]
28 | AUAAAAGCGCCAGAACUACAGAAAUGUAGUUGACGAGGAUGAGGUUUAUCGAAUUAUCGGCGGAUGCCUCCAAA [G40U U56A] | 8.06 ± 7
20 | AUAAAAGCGCCAGAACUACAGAAAUGUAGUUGACGAGGAAGAGGUUUAUCGAAUUUUCGGCGGAUGCCUCAAAA [G40A C71A] | 4.47 ± 4.2
31 | AUAAAAGCGCCAGAACUACAGAAAUGUAGUUGACGAGGAGGCGGUUUAUCGAAUUUUCGGCGGAUGCCUUCAAA [A42C C70U] | 7.63 ± 4.4

Variants of: B1
Experiment: self-cleavage kobs at 160 uM GlcN6P; higher = faster cleavage; RNA array
Settings: with glucosamine-6-phosphate
How it was run: as §1

Row | Variant | self-cleavage kobs at 160 uM GlcN6P [s⁻¹]
34 | AUAAAAGCGCCAGAACUACAGAAAUGUAGUUGACGAGGAUGAGGUUUAUCGAAGUUUCGGCGGAUGCCUCCAAA [G40U U54G] | 8.53e-05 ± 5.2e-05

Variants of: B1
Experiment: self-cleavage kobs at 10000 uM GlcN6P; higher = faster cleavage; RNA array
Settings: with glucosamine-6-phosphate
How it was run: as §1

Row | Variant | self-cleavage kobs at 10000 uM GlcN6P [s⁻¹]
35 | AUAAAAGCGCCAGAACUACAGAAAUGUAGUUGACGAGGAGGGGGUUUAUAGAAUUUUCGGCGGAUGCCUCCAAA [A42G C50A] | 2.65e-05 ± 1.4e-05
36 | AUAAAAGCGCCAGAACUACAGAAAUGUAGUUGACGAGGAGGUUGUUUAUGGAAUUUUCGGCGGAUGCCUCCAAA [A42U G43U C50G] | 2.33e-05 ± 2.2e-05

Variants of: B1
Experiment: self-cleavage kobs at 2500 uM GlcN6P; higher = faster cleavage; RNA array
Settings: with glucosamine-6-phosphate
How it was run: as §1

Row | Variant | self-cleavage kobs at 2500 uM GlcN6P [s⁻¹]
37 | AUAAAAGCGCCAGAACUACAGAAAUGUAGUUGACGAGGAGGUGGUUUAUCGGAUUUUCGGCGGAUGCCUCCAAA [A42U A52G] | 1.75e-05 ± 1.7e-05

Variants of: B1
Experiment: self-cleavage kobs at 640 uM GlcN6P; higher = faster cleavage; RNA array
Settings: with glucosamine-6-phosphate
How it was run: as §1

Row | Variant | self-cleavage kobs at 640 uM GlcN6P [s⁻¹]
38 | AUAAAAGCGCCAGAACUACAGAAAUGUAGUUGACGAGGAGGUUGUUUAUGGAAUUUUCGGCGGAUGCCUCCAAA [A42U G43U C50G] | 0.000145 ± 7.3e-05
